The record followed here is patent publication US20230357373A1, “METHODS AND COMPOSITIONS FOR […] TREATING FIBROSIS” (Mie University, priority 2019, published 2023).

This series is described as follows: Competitive enzyme immune assay of corisin in bronchoalveolar lavage fluid. To be noted: IPF patients. More on the design: species or system human.

Turning to “IVMPESSGNPNAVNPAGYR (listed as Staphylococcus cohnii) [corisin, peptide of 19 amino acid residues, segment of transglycosylase 351 IsaA of Staphylococcus nepalensis strain CNDG]”, the “level of corisin in bronchoalveolar lavage fluid, females” value (females) was found to be 58.8 ± 10.7 µg/mL. Where the note is “males”, the “level of corisin in bronchoalveolar lavage fluid, males” value is 50.6 ± 4.9 µg/mL.
